For the assay, the target named is GST-tagged CUL1 WT (human) (UniProt Q13616). The experiment in a line: pull-down; bead-bound GST fusion purified from bacteria (BL21) incubated with HEK293T lysates expressing the Flag-tagged partner for 5 h; washed four times with TBSN buffer (20 mM Tris-Cl pH 8.0, 150 mM NaCl, 0.5% NP-40); anti-Flag immunoblot; only the target purified. (A western blot detects proteins with antibodies after separation by electrophoresis.)

The chains behind the UniProt entries cited, without tags or fusion partners.
UniProt Q13616: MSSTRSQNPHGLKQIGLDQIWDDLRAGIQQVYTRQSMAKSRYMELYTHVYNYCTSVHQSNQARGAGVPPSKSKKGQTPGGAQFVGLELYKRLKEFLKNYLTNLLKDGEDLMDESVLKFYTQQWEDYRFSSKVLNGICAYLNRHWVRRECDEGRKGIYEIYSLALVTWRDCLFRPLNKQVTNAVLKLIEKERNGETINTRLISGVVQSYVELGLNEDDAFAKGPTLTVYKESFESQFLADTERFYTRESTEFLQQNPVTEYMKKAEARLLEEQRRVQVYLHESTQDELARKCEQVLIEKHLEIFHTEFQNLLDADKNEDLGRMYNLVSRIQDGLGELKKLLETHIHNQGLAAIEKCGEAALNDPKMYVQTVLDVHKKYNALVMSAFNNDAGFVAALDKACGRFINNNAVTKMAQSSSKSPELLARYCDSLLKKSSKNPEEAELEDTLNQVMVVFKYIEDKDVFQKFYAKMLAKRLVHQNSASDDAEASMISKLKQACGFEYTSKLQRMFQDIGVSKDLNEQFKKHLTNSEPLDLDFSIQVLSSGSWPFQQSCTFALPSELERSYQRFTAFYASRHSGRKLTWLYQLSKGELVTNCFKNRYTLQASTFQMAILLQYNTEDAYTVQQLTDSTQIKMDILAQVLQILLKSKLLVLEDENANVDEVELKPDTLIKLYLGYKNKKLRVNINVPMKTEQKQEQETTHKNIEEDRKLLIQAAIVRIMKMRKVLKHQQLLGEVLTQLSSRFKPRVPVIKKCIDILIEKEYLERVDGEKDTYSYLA

Results are given in words; binding and its absence hold for the method and conditions named. Binding seen in cells or lysates may run through a third protein. Some binding calls cover weakened binding; strength is not graded here. Sequences can lack the tags named with a protein.

B1: Flag-tagged Dvl2 WT (mouse dishevelled 2) (protein, UniProt Q60838 1-736)
chain: MAGSSAGGGGVGETKVIYHLDEEETPYLVKIPVPAERITLGDFKSVLQRPAGAKYFFKSMDQDFGVVKEEISDDNARLPCFNGRVVSWLVSSDTPQPEVAPPAHESRTELVPPPPPLPPLPPERTSGIGDSRPPSFHPNVSSSHENLEPETETESVVSLRRDRPRRRDSSEHGAGGHRPGGPSRLERHLAGYESSSTLMTSELESTSLGDSDEDDTMSRFSSSTEQSSASRLLKRHRRRRKQRPPRMERTSSFSSVTDSTMSLNIITVTLNMEKYNFLGISIVGQSNERGDGGIYIGSIMKGGAVAADGRIEPGDMLLQVNDMNFENMSNDDAVRVLRDIVHKPGPIVLTVAKCWDPSPQAYFTLPRNEPIQPIDPAAWVSHSAALTGAFPAYPGSSSMSTITSGSSLPDGCEGRGLSVHMDMASVTKAMAAPESGLEVRDRMWLKITIPNAFLGSDVVDWLYHHVEGFPERREARKYASGLLKAGLIRHTVNKITFSEQCYYVFGDLSGGCESYLVNLSLNDNDGSSGASDQDTLAPLPGATPWPLLPTFSYQYPAPHPYSPQPPPYHELSSYTYGGGSASSQHSEGSRSSGSTRSDGGAGRTGRPEERAPESKSGSGSESELSSRGGSLRRGGEPGGTGDGGPPPSRGSTGAPPNLRALPGLHPYGAPSGMALPYNPMMVVMMPPPPPPVSTAVQPPGAPPVRDLGSVPPELTASRQSFHMAMGNPSEFFVDVM
As for B1, the binding entry was “binds”.

Values taken from article PMC8307194.
